This assay addresses TMEM189-GFP (human) (UniProt A5PLL7). Briefly: affinity purification with mass spectrometry.

By UniProt entry, the sequences of proteins in these tests, tags left out.
UniProt A5PLL7: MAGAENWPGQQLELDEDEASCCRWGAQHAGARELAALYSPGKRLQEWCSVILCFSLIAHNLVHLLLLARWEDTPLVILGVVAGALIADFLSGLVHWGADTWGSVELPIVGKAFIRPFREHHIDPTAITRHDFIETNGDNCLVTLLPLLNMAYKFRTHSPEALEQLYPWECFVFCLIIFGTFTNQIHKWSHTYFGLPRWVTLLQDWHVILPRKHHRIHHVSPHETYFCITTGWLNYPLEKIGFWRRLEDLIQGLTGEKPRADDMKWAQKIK

Drawing on publication doi:10.1101/827071, this text covers binding for one molecule.

Results are given in words; binding and its absence hold for the method and conditions named. Binding seen in cells or lysates may run through a third protein. Here binding means that the protein was enriched with, or labelled near, the bait; the list need not be complete.

B1: SPTLC2 (protein, UniProt O15270 1-562)
chain: MRPEPGGCCCRRTVRANGCVANGEVRNGYVRSSAAAAAAAAAGQIHHVTQNGGLYKRPFNEAFEETPMLVAVLTYVGYGVLTLFGYLRDFLRYWRIEKCHHATEREEQKDFVSLYQDFENFYTRNLYMRIRDNWNRPICSVPGARVDIMERQSHDYNWSFKYTGNIIKGVINMGSYNYLGFARNTGSCQEAAAKVLEEYGAGVCSTRQEIGNLDKHEELEELVARFLGVEAAMAYGMGFATNSMNIPALVGKGCLILSDELNHASLVLGARLSGATIRIFKHNNMQSLEKLLKDAIVYGQPRTRRPWKKILILVEGIYSMEGSIVRLPEVIALKKKYKAYLYLDEAHSIGALGPTGRGVVEYFGLDPEDVDVMMGTFTKSFGASGGYIGGKKELIDYLRTHSHSAVYATSLSPPVVEQIITSMKCIMGQDGTSLGKECVQQLAENTRYFRRRLKEMGFIIYGNEDSPVVPLMLYMPAKIGAFGREMLKRNIGVVVVGFPATPIIESRARFCLSAAHTKEILDTALKEIDEVGDLLQLKYSRHRLVPLLDRPFDETTYEETED
Turning to B1, the binding result is given as “binds”.
